In article PMC4779111, “A Human Renal Proximal Tubule Cell Line with Stable Organic Anion Transporter 1 and 3 Expression Predictive for Antiviral-Induced Toxicity” (The AAPS Journal, 2016):
Where two headings read alike, the source gives them in different places.

Key:
[1] = biological target: T1, OAT1 (Homo sapiens, UniProt Q4U2R8); design: host or cells: ciPTEC (human conditionally immortalized proximal tubule epithelial cells), lentiviral transduction; conditions: substrate PAH, S2-OAT1; read-out: IC50 (literature); cited from earlier work
T1 sequence (Q4U2R8 1-563): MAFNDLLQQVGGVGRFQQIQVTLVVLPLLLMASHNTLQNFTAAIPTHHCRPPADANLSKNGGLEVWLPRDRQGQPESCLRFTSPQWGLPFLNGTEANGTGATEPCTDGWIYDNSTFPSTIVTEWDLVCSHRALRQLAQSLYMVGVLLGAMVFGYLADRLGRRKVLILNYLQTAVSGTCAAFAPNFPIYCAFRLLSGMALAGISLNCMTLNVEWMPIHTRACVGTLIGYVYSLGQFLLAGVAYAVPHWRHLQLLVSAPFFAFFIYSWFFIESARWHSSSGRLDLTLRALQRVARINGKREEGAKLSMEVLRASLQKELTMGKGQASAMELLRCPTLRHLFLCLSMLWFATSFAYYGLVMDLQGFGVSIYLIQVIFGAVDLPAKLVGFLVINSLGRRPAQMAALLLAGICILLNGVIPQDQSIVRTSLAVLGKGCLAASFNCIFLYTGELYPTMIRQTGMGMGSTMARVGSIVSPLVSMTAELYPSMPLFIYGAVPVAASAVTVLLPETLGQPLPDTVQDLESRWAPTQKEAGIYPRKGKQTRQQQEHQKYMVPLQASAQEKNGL

[2] = biological target: T1, OAT1; experiment: Inhibition of OAT-mediated fluorescein uptake in ciPTEC-OAT1; type: cell-based; design: host or cells: ciPTEC (human conditionally immortalized proximal tubule epithelial cells), lentiviral transduction
Experimental: (§1) All chemicals were obtained from Sigma, unless stated otherwise. Uptake was stopped by washing three times with ice-cold HBSS (4°C).
(§2) Non-linear regression with variable slope constraining the top to 100% was used to fit the data after background subtraction with GraphPad Prism. Statistics was performed by two-way ANOVA (two-tailed, α = 0.05) using GraphPad Prism as well. All data is presented as mean ± SEM of at least three separate experiments (n = 3) performed in triplicate, unless stated otherwise.

[3] = biological target: T2, OAT3 (Homo sapiens, UniProt Q8TCC7); experiment: Inhibition of OAT-mediated fluorescein uptake in ciPTEC-OAT3
T2 sequence (Q8TCC7 1-542): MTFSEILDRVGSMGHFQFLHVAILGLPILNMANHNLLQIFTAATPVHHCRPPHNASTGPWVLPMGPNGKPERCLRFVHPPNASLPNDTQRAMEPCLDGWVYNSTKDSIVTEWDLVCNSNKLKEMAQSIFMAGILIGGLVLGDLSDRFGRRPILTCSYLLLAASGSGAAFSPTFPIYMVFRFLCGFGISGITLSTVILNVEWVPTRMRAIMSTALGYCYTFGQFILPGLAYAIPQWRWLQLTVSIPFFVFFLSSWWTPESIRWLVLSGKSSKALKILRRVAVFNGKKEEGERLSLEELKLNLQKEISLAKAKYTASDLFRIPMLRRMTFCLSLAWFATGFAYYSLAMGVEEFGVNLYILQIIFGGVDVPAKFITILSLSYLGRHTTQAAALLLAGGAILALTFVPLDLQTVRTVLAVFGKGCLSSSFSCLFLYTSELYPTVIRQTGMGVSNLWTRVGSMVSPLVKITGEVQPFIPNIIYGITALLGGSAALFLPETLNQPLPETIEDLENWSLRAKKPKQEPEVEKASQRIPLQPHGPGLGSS
Experimental: as §1, §2

[4] = biological target: T2, OAT3; design: host or cells: ciPTEC (human conditionally immortalized proximal tubule epithelial cells), lentiviral transduction; method as in PMID 17314201; conditions: substrate sitagliptin, CHO-OAT3; read-out: IC50 (literature); cited from earlier work
[5] = biological target: T2, OAT3; conditions: read-out: IC50 (literature); substrate estrone sulfate, S2-OAT3; cited from earlier work

Q: Which IC50 [1] does the source give for NS(=O)(=O)c1cc(C(=O)O)c(NCc2ccco2)cc1Cl [Furosemide, furosemide] here?
A: 18 µM

Q: And the IC50 [2]?
A: 25 ± 4 µM

Q: What about the IC50 [3] of the same molecule?
A: 2.3 ± 0.4 µM

Q: What about the IC50 [4] of the same molecule?
A: 1.7 µM

Q: What about the IC50 [5] of the same molecule?
A: 7.31 µM
